# Experimental data: US11389505B2, “Method of managing joint pain” (ORTHOTROPHIX, INC., priority 2017, dated 2022)
# Not every detail of the peptide structures is certain; ends, links or a residue may be inferred. Ends that are not written are not given here.
# Legend:
# [1] = test system: subjects with bilateral patello-femoral knee osteoarthritis; assay: Randomized double-blind placebo-controlled clinical study of TPX-100, KOOS/WOMAC patient reported outcomes; type: in vivo, human; conditions: for Knee functions, KOOS ADL (Function of Daily Living) and WOMAC function, versus placebo-treated knees: at both 6 and 12 months, FIG. 12; for Frequency of overall knee pain, Index versus Control knees: KOOS Pain Question 1, p=0.04; for Severity of pain bending knee fully, Index versus Control knees: KOOS Pain Question 4, 12 months, P=0.07, FIG. 6; for Severity of pain going up or down stairs, Index versus Control knees: KOOS Pain Question 6, p=0.004, FIG. 8; for Pain alleviation in other activities or statuses of the KOOS Pain score: activities other than going up or down stairs and bending knee fully, any time point
# [2] = test system: goat model of standardized large cartilage defects; conditions: four weekly intra-articular injections, 125 mg and 250 mg; 6 months post-surgery; U.S. Pat. No. 8,426,558; cited from earlier work
# [3] = stated as known; cited from earlier work
# [4] = 200 mg, at 12 months, listed as peptide of SEQ ID No. 1
# [5] = 200 mg, listed as peptide of SEQ ID No. 1
substance,measurement,setting,value
TDLQERGDNDISPFSGDGQPFKD-NH2 [TPX-100],"Knee functions, KOOS ADL (Function of Daily Living) and WOMAC function, versus placebo-treated knees","[1]; 200 mg intra-articular, 4 once-weekly doses",clinically meaningful and statistically significant (p<0.05) improvement
same,"Knee functions, KOOS ADL (Function of Daily Living) and WOMAC function, versus placebo-treated knees","[1]; 200 mg intra-articular, 4 once-weekly doses, listed as peptide of SEQ ID No. 1",clinically meaningful and highly statistically significant (p=0.008) improvement
same,"KOOS Sports and Recreation subscale, Index knees compared to Control knees","[1]; 200 mg, at 6 months",clinically meaningful and statistically significant improvement
same,"KOOS knee related quality of life (QOL) subscale, Index knees compared to Control knees","[1]; 200 mg, at 12 months",clinically meaningful and statistically significant improvement
same,"Total KOOS Pain subscale, Index knees compared to Control knees","[1]; 200 mg, at 12 months, p=0.09, listed as peptide of SEQ ID No. 1",clinically meaningful improvement
same,"Total KOOS pain scores, drug-treated versus placebo treated knees","[1]; 200 mg, until 6 months after the treatment",very similar
same,"Score Change from Baseline to 12 Months, Index: How often do you experience RIGHT/LEFT knee pain?","[1]; KOOS Pain Question 1 (frequency, score 0-4), TPX-100 treated knees, 200 mg intra-articular, 4 once-weekly doses, negative = decreased",−0.62
same,"Frequency of overall knee pain, Index versus Control knees","[1]; 200 mg, at 12 months",significantly improved (p=0.04)
same,"Frequency of overall knee pain, Index versus Control knees",[1]; [4],significantly reduced
same,"Score Change from Baseline to 12 Months, Index: Twisting/pivoting on your knee","[1]; KOOS Pain Question 2 (severity, score 0-4), TPX-100 treated knees, 200 mg intra-articular, 4 once-weekly doses",−0.19
same,"Score Change from Baseline to 12 Months, Index: Straightening knee fully moving","[1]; KOOS Pain Question 3 (severity, score 0-4), TPX-100 treated knees, 200 mg intra-articular, 4 once-weekly doses",−0.30
same,"Score Change from Baseline to 12 Months, Index: Bending knee fully","[1]; KOOS Pain Question 4 (severity, score 0-4), TPX-100 treated knees, 200 mg intra-articular, 4 once-weekly doses",−0.45
same,"Severity of pain bending knee fully, Index versus Control knees",[1]; 200 mg,a trend (p<0.09) of improvement
same,"Severity of pain bending knee fully, Index versus Control knees",[1]; [5],near statistically significant pain alleviation
same,"Score Change from Baseline to 12 Months, Index: Walking on flat surface","[1]; KOOS Pain Question 5 (severity, score 0-4), TPX-100 treated knees, 200 mg intra-articular, 4 once-weekly doses",−0.25
same,"Score Change from Baseline to 12 Months, Index: Going up or down stairs","[1]; KOOS Pain Question 6 (severity, score 0-4), TPX-100 treated knees, 200 mg intra-articular, 4 once-weekly doses",−0.51
same,"Severity of pain going up or down stairs, Index versus Control knees","[1]; 200 mg, at 12 months",highly significant
same,"Severity of pain going up or down stairs, Index versus Control knees",[1]; [4],statistically significant improvement
same,"Score Change from Baseline to 12 Months, Index: At night while in bed","[1]; KOOS Pain Question 7 (severity, score 0-4), TPX-100 treated knees, 200 mg intra-articular, 4 once-weekly doses",−0.19
same,"Score Change from Baseline to 12 Months, Index: Sitting or lying","[1]; KOOS Pain Question 8 (severity, score 0-4), TPX-100 treated knees, 200 mg intra-articular, 4 once-weekly doses",−0.26
same,"Score Change from Baseline to 12 Months, Index: Standing upright","[1]; KOOS Pain Question 9 (severity, score 0-4), TPX-100 treated knees, 200 mg intra-articular, 4 once-weekly doses",−0.34
same,Pain alleviation in other activities or statuses of the KOOS Pain score,[1]; 200 mg,did not show statistically significant improvements
same,Pain alleviation in other activities or statuses of the KOOS Pain score,[1]; [5],did not show pain alleviation with statistical significance or trend
same,Articular cartilage regeneration compared to the vehicle control group (histologically-confirmed),[2],statistically significant articular cartilage regeneration
same,Analgesic or anti-inflammatory activities,[3],does not have any analgesic or anti-inflammatory activities
